These results are taken from article PMC4480739, “Oncogenic mutations of thyroid hormone receptor β” (Oncotarget, 2015).

Sequences of proteins named here, by UniProt entry; tags and fusion partners are left off. A change or cut given only in a name is not applied to a line headed by its entry.
UniProt P27986: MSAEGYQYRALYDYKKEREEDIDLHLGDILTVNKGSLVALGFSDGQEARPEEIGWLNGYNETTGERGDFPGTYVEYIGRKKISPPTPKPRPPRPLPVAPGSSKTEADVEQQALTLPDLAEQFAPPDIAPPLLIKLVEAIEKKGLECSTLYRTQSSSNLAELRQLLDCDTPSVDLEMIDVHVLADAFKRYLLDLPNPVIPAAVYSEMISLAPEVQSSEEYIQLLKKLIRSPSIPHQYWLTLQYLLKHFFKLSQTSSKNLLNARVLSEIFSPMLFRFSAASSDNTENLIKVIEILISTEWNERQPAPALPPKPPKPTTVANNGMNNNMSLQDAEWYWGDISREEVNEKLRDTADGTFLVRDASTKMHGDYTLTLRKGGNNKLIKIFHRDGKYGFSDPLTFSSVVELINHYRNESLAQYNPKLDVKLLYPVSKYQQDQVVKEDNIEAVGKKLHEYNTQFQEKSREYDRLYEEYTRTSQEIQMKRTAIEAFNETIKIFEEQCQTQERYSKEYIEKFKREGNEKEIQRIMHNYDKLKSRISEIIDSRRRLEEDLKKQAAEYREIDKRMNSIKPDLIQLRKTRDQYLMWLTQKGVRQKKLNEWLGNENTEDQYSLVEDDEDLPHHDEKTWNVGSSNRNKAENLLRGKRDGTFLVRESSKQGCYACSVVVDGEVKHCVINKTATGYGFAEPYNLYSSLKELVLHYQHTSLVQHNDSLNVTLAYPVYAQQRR
UniProt P10828: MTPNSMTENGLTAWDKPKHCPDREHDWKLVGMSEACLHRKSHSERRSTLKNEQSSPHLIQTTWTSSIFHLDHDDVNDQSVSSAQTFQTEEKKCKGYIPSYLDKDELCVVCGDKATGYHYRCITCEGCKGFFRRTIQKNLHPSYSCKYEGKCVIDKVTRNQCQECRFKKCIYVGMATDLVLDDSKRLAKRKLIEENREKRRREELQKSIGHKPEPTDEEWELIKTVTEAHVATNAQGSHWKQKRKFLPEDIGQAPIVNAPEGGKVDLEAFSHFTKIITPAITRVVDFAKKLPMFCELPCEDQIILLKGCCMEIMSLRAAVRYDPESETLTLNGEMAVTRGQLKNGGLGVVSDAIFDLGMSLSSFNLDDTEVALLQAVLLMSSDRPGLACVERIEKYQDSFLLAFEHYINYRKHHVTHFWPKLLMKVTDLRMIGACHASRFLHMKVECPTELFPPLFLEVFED

These are yes or no findings as the source states them, for the method shown. In cells and extracts the contact can be indirect. Binding calls can cover weak binding; strength is not graded here.

The target in this test is p85α regulatory subunit of PI3K (human (endogenous in MDA-MB-468)) (UniProt P27986). The test is described as follows: co-IP; lysates (1 mg) of MDA-MB-468 cells expressing TRβ1 or mutants, treated without or with T3 (100 nM) for 24 hours; immunoprecipitated with monoclonal anti-p85α antibody, blotted with anti-TRβ1 (J53).

“3Flag-Mdbs (TRβ1 C-terminal frame-shift mutant Mdbs) (from UniProt P10828) (receptor)”: the binding entry was “binds”.
The value for “3Flag-Mkar (TRβ1 C-terminal frame-shift mutant Mkar) (from UniProt P10828) (receptor)” was “binds”.
The entry for “3Flag-PV (TRβ1 C-terminal frame-shift mutant PV) (from UniProt P10828) (receptor)” is “binds”.
